From article PMC6481345, “A novel anti-melanoma SRC-family kinase inhibitor” (Oncotarget, 2019)

Tests used:
Assay in all cases: CellTiter-Glo Luminescent Cell Viability Assay
Assay type in all cases: cell-based, human
YUSIK melanoma cells = test system: YUSIK melanoma cells
Protocol: (§1) The melanoma cells were grown in OptiMEM (Invitrogen, Carlsbad, CA) supplemented with 5% fetal calf serum and antibiotics. The normal human melanocytes (NBMEL) were grown in medium supplemented with bFGF, IBMX and dbcAMP [32]. Most of the Yale melanoma cell lines were characterized by next-generation sequencing (Supplementary Table 2).
(§2) Cell proliferation was measured with the CellTiter-Glo® Luminescent Cell Viability Assay (Promega Corporation, Madison, WI). Melanoma cells were seeded in 96-well plates in triplicate or quadruplet wells, with increasing concentrations of kinase inhibitors for 72 hrs. The rate of proliferation was also tested after knockdown of different SRC-family kinases (SFK) with hairpin lentivirus shRNA as indicated. […] The statistical significance of synergism of response to drug combinations was evaluated by following Chou and Talalay algorithm. See also details in Supplementary Material.

501 mel melanoma cells = test system: 501 mel melanoma cells
Protocol: as §1, §2

YUROB melanoma cells = test system: YUROB melanoma cells
Protocol: as §1, §2

[1] = 501 mel BRAF V600E, Variation 2

Row | Structure (SMILES) | m (slope, median-effect equation) (YUSIK melanoma cells; YUSIK BRAF V600E, Variation 2) | m (slope, median-effect equation) (YUSIK melanoma cells; YUSIK BRAFV600E, Variation 1) | m (slope, median-effect equation) (501 mel melanoma cells; [1]) | m (slope, median-effect equation) (501 mel melanoma cells; 501 mel BRAFV600E, Variation 1) | m (slope, median-effect equation) (YUROB melanoma cells; YUROB HRAS Q61K, Variation 2) | m (slope, median-effect equation) (YUROB melanoma cells; YUROB HRASQ61K, Variation 1)
1 | Cn1cnc2c(F)c(Nc3ccc(Br)cc3Cl)c(C(=O)NOCCO)cc21 [AZD6244, selumetinib, reference compound] | 0.7634 ± 0.167 | 0.7634 ± 0.167 | 0.521 ± 0.09853 | 1.136 ± 0.7177 | 0.3136 ± 0.04218 | 0.3136 ± 0.04218
2 | Nc1ncnc2c1c(-c1ccc(Oc3ccccc3)cc1)nn2C[C@@H]1SSC[C@@H]1O [SAB298, (3S, 4S)-3-((4-amino-3-(4-phenoxyphenyl)-1H-pyrazolo[3,4-d]pyrimidin-1-yl)methyl)-1,2-dithiolan-4-ol] | 1.122 ± 0.2495 | 2.852 ± 0.6764 | 0.4344 ± 0.08859 | 1.524 ± 0.9375 | 0.5976 ± 0.07865 | 1.666 ± 0.9206
